Data taken from the supplement of paper PMC12819154, “High-throughput peptide-centric local stability assay extends protein–ligand identification to membrane proteins, tissues and bacteria” (Nature Structural & Molecular Biology, 2025).
Some of the results follow. Small differences around the control level are noise.

Amino acid sequences for entries named in this document (tags omitted). A change or cut given only in a name is not applied to a line headed by its entry.
UniProt Q53R41: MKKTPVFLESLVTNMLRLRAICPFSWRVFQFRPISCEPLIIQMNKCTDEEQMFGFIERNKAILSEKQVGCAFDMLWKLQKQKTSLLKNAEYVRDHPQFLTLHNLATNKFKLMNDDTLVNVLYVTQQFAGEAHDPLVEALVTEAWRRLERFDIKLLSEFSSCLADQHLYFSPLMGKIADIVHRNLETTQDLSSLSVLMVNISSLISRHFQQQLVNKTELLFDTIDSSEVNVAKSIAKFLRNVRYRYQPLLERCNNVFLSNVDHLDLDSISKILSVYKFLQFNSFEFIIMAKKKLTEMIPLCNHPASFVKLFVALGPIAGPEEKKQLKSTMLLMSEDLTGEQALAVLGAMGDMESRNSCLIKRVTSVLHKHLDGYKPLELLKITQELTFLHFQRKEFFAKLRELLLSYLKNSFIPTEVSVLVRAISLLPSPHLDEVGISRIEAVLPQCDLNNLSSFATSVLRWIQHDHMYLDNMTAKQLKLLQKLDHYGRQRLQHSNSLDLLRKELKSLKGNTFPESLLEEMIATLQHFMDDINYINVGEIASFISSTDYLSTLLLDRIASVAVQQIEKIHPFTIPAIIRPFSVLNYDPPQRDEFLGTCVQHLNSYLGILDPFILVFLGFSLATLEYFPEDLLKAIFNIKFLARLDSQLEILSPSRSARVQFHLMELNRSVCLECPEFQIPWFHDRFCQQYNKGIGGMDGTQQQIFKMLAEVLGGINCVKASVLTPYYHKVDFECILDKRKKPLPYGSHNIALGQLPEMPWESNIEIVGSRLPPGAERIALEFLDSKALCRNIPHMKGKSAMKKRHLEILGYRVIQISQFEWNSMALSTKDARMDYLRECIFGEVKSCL
UniProt Q56P03: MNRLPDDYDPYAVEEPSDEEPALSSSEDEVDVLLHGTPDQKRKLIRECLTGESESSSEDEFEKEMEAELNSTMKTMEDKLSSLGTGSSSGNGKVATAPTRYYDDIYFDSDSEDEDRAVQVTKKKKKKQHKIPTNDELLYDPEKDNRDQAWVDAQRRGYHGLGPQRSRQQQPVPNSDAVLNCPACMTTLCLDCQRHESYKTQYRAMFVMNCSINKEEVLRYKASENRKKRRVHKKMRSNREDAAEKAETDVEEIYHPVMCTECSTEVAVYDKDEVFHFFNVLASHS
UniProt Q49AN0: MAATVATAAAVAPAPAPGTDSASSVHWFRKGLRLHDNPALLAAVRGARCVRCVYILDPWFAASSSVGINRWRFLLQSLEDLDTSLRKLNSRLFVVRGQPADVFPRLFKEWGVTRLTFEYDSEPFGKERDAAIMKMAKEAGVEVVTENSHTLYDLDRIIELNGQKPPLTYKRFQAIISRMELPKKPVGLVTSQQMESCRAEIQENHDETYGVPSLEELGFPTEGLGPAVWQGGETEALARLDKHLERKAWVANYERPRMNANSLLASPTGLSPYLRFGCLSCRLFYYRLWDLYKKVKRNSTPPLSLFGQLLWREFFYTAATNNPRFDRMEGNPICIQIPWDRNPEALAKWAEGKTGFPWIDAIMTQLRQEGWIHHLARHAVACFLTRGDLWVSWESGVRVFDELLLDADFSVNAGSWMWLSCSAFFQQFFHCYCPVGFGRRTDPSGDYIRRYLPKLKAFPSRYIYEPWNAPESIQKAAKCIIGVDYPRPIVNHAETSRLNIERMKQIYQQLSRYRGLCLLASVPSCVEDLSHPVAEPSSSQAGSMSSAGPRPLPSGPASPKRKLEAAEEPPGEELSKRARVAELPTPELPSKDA
UniProt Q5SXM8: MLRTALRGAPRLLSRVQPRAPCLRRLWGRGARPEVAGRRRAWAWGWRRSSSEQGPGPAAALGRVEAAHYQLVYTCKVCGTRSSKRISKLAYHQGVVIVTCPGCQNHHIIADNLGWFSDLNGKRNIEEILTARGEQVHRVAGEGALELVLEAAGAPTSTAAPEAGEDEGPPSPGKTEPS
UniProt Q567U6, whole entry: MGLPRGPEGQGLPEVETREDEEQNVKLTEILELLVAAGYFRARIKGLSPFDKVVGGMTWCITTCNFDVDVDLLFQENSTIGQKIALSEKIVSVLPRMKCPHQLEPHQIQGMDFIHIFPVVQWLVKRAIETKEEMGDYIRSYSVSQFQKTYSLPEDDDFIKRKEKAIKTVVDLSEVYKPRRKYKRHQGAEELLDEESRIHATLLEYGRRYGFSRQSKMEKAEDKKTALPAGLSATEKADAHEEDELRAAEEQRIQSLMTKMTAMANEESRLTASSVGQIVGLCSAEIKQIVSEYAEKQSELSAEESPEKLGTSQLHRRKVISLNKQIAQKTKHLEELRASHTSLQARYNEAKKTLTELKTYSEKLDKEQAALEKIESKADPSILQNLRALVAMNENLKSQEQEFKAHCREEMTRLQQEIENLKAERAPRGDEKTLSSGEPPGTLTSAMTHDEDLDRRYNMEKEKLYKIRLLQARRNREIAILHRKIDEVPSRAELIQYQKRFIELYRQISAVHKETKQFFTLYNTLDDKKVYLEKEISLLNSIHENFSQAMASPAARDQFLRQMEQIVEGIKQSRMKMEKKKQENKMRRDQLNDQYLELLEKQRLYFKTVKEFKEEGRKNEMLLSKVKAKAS
UniProt Q4G148: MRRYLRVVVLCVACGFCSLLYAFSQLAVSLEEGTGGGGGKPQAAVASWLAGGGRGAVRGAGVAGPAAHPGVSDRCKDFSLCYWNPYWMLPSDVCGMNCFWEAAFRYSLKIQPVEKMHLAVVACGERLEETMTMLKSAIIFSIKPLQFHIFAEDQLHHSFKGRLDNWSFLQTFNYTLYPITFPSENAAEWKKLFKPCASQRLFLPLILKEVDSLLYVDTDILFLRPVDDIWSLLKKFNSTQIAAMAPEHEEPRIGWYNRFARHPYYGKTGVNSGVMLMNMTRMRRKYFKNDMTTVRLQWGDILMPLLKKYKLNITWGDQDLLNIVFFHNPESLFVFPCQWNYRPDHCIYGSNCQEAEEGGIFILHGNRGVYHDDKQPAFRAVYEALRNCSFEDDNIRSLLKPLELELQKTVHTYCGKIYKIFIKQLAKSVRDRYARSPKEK
UniProt Q5TAQ9: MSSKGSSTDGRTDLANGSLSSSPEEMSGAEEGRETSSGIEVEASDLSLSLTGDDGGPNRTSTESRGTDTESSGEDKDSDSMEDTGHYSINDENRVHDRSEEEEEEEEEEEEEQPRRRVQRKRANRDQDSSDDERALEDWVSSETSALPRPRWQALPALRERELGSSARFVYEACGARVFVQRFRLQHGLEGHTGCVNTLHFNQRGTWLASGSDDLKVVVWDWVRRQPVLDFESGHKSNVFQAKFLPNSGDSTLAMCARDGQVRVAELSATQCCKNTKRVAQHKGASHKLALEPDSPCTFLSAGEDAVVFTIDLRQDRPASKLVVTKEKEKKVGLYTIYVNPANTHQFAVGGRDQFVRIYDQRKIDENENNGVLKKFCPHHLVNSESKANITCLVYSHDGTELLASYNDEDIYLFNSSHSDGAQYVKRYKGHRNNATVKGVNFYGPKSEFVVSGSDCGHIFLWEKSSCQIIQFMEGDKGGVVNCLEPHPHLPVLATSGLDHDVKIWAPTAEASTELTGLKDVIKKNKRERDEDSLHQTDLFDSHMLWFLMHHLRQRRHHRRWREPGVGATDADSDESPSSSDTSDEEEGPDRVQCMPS
UniProt Q5RL73: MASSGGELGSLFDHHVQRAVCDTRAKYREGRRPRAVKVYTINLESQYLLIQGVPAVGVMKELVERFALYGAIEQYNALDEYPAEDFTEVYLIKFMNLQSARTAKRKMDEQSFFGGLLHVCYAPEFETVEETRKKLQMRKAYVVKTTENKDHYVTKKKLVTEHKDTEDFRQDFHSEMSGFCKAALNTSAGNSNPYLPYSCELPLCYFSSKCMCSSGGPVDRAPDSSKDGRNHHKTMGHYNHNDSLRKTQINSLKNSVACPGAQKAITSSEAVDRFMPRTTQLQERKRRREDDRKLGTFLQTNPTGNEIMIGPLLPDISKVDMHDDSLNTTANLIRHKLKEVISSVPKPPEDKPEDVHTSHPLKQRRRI
UniProt Q53GI3: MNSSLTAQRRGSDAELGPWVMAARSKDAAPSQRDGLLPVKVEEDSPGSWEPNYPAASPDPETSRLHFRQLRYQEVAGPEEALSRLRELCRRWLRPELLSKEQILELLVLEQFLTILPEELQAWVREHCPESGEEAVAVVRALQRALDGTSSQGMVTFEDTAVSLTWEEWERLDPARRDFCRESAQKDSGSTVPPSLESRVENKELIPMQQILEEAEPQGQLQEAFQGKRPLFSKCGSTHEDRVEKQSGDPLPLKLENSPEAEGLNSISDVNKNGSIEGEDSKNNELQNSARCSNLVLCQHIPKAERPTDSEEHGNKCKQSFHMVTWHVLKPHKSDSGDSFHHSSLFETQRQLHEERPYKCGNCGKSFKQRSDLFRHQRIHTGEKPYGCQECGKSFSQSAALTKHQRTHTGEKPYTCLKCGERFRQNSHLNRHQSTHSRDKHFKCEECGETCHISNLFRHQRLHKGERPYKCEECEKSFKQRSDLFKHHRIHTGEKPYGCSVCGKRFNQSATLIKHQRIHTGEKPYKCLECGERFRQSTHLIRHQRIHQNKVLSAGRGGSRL
UniProt Q569H4: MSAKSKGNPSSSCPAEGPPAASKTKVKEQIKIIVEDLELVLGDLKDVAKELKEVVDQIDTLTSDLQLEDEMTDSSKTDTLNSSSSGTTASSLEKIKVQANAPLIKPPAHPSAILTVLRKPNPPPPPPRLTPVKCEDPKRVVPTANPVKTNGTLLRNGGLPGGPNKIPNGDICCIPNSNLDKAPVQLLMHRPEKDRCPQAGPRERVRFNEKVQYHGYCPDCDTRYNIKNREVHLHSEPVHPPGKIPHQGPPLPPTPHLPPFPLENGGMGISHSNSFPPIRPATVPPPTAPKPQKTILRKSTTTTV
UniProt Q5VXD3: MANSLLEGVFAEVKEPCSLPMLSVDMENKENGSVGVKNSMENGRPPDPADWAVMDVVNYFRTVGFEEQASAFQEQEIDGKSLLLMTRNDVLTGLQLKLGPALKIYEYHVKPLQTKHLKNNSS

Compound: CN[C@@H]1C[C@H]2O[C@@](C)([C@@H]1OC)n1c3ccccc3c3c4c(c5c6ccccc6n2c5c31)C(=O)NC4 [staurosporine]
Assay: log2 fold change of tryptic peptide abundance, ligand vs vehicle (limited proteolysis) (log2 ratio); higher = more trypsin-susceptible (destabilized)
Conditions: ligand concentration: 20 uM; sample: K562 cleared lysate; digestion: 4 min, 22 C (HT-PELSA RT4min, Orbitrap Astral)

Row | Target | log2 fold change
1 | FASTKD1 (peptide sequence: IALEFLDSK, peptide start residue: 777) (UniProt Q53R41) | -0.239
2 | EAPP (peptide sequence: DQAWVDAQR, peptide start residue: 147) (UniProt Q56P03) | 0.145
3 | CRY2 (peptide sequence: KLEAAEEPPGEELSKR, peptide start residue: 562) (UniProt Q49AN0) | 0.471
4 | DNLZ (peptide sequence: NIEEILTAR, peptide start residue: 124) (UniProt Q5SXM8) | 0.0148
5 | CCDC93 (peptide sequence: TVVDLSEVYKPR, peptide start residue: 168) (UniProt Q567U6) | -0.11
6 | UniProt Q4G148 (peptide sequence: SLLKPLELELQK, peptide start residue: 397) | 0.29
7 | UniProt Q5TAQ9 (peptide sequence: GTWLASGSDDLK, peptide start residue: 205) | -0.368
8 | RBM48 (peptide sequence: AITSSEAVDR, peptide start residue: 264) (UniProt Q5RL73) | -0.357
9 | UniProt Q53GI3 (peptide sequence: EHCPESGEEAVAVVR, peptide start residue: 126) | 0.417
10 | PRR16 (peptide sequence: ERVRFNEK, peptide start residue: 203) (UniProt Q569H4) | 0.263
11 | UniProt Q5VXD3 (peptide sequence: IYEYHVKPLQTK, peptide start residue: 104) | 0.371
